No constants are given. Whether binding was seen depends on the method and setting. Binding seen in cells or lysates may run through a third protein. For part of these data: A result given as binding can be weak or reduced; the word gives no strength. Where a sequence is shown, tags or fusion partners need not be part of it.

Common to all, as to assay: co-IP
One experiment deals with T1, FLAG-TRIP6 Δ1-9 (UniProt Q15654).
T1 sequence: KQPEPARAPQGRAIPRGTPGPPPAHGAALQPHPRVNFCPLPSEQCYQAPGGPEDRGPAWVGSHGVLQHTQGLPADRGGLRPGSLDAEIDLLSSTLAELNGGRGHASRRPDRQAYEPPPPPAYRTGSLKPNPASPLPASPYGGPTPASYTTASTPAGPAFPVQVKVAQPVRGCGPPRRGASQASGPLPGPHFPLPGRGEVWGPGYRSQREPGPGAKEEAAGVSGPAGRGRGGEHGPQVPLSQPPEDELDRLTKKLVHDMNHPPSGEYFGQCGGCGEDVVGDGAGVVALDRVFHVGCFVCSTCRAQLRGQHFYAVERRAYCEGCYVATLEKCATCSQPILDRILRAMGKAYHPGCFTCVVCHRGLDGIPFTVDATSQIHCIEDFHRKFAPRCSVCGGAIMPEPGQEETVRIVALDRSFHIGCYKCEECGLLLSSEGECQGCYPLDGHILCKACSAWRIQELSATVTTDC

Experiment [1] has as its target T2, FLAG-TRIP6 amino-terminal half (amino acids 1-277) (UniProt Q15654).
T2 sequence: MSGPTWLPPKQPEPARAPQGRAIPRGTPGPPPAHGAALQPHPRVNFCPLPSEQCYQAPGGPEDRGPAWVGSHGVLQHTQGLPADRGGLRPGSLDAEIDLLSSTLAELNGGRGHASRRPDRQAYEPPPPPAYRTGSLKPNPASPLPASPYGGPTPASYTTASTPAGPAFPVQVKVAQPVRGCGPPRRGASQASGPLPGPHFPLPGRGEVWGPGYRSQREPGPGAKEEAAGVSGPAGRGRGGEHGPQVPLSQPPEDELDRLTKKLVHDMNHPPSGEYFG

Another experiment deals with T3, FLAG-TRIP6 Δ252-277 (UniProt Q15654).
T3 sequence: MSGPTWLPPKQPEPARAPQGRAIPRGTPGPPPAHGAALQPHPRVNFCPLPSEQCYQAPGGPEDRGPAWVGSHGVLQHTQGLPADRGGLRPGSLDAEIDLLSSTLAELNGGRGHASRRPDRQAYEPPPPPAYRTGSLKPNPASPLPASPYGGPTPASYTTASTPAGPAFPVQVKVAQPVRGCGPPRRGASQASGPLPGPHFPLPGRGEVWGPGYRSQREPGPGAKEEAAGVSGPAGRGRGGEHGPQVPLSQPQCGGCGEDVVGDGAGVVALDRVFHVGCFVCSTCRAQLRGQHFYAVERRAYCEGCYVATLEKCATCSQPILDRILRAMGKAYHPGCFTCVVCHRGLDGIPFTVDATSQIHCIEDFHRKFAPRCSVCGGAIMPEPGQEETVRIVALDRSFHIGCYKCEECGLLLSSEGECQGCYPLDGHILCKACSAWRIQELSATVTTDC

In the case of vinculin (from UniProt P18206-2), the binding result in the experiment with FLAG-TRIP6 Δ1-9 was “binds”; in experiment [1] it was “binds”; in the experiment with FLAG-TRIP6 Δ252-277, “no binding”.

For the origin of these results see publication doi:10.1101/2023.10.12.562097.
